# Taken from: PubChem BioAssay AID1259405 (NCATS, 2018)
# Purpose: 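Silenced genes that increase secreted GFP made by CHO cells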 (primary screen)
# System: Chinese hamster CHO-K1 ovary cells with stable secreted eGFP expression
# Reagent: single siRNA against mouse genes, 0.8 pmol siRNA per well (2 µl of 400 nM stock)
# Timing: 3 days
# Measurement: 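Per-well intracellular GFP measured by laser scanning cytometry, plus viability from ATP luminescence, each relative to plate median of non-targeting control wells, in %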
# Direction: GFP, % of control: higher = more GFP per well, higher productivity; viability (ATP), % of control: higher = more viable cells (more ATP)
# Hit rule: 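a knock-down is called active if GFP reaches 120% or more of non-targeting control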
# Shown is one part, drawn at random, of about 50,000 reagents. About 4,000 of all reagents (8%) were called active. 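Mouse siRNA library applied to hamster cells; one well for each siRNA.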 A number with no mark means an inactive call. Reagents against one gene are numbered here.
gene,reagent no.,"GFP, % of control","viability (ATP), % of control"
Tbc1d19 (GeneID 67249),1,115,77.6
Tbc1d19 (GeneID 67249),2,74.1,49.5
Tbc1d19 (GeneID 67249),3,67.2,63.6
Hltf (GeneID 20585),1,96.8,95.3
Hltf (GeneID 20585),2,73,84.3
Hltf (GeneID 20585),3,77.9,67.2
Mptx1 (GeneID 66289),1,74.3,72.1
Mptx1 (GeneID 66289),2,76.1,88.1
Mptx1 (GeneID 66289),3,96.7,72.8
Gpaa1 (GeneID 14731),1,75.6,73.9
Gpaa1 (GeneID 14731),2,96,70.7
Gpaa1 (GeneID 14731),3,44.8,47.8
Ctdsp2 (GeneID 52468),1,47.7,39.1
Ctdsp2 (GeneID 52468),2,90.5,69.9
Ctdsp2 (GeneID 52468),3,55.9,79.8
Hspa9 (GeneID 15526),1,98.9,47.3
Hspa9 (GeneID 15526),2,59.8,19.8
Hspa9 (GeneID 15526),3,79.4,49.7
Zc3hc1 (GeneID 232679),1,51.3,63.4
Zc3hc1 (GeneID 232679),2,102,91.8
Inhbe (GeneID 16326),1,32.3,48
Inhbe (GeneID 16326),2,58.9,66.2
Inhbe (GeneID 16326),3,95.1,77.1
Gas2 (GeneID 14453),1,64.4,71.8
Gas2 (GeneID 14453),2,41.6,38.7
Gas2 (GeneID 14453),3,111,109
Znf41-ps (GeneID 70005),1,85.8,78.6
Znf41-ps (GeneID 70005),2,79.1,61.3
Znf41-ps (GeneID 70005),3,126 (active),93.1
Or10d5 (GeneID 258825),1,116,66.5
Or10d5 (GeneID 258825),2,77.3,83.9
Or10d5 (GeneID 258825),3,62.8,74.7
Hells (GeneID 15201),1,72.1,98.7
Hells (GeneID 15201),2,90.6,76.3
Hells (GeneID 15201),3,171 (active),106
Adamdec1 (GeneID 58860),1,76.3,72.9
Adamdec1 (GeneID 58860),2,49.3,36.6
Adamdec1 (GeneID 58860),3,67.8,90.2
Chrna1 (GeneID 11435),1,76.6,87.9
Chrna1 (GeneID 11435),2,60.2,72.7
Chrna1 (GeneID 11435),3,57,65.5
Relb (GeneID 19698),1,123 (active),118
Relb (GeneID 19698),2,62.3,47.4
Relb (GeneID 19698),3,95.4,90

Only “GFP, % of control” (10 entries from above):
Hells (GeneID 15201) #3 = 171 (active)
Adamdec1 (GeneID 58860) #1 = 76.3
Adamdec1 (GeneID 58860) #2 = 49.3
Adamdec1 (GeneID 58860) #3 = 67.8
Chrna1 (GeneID 11435) #1 = 76.6
Chrna1 (GeneID 11435) #2 = 60.2
Chrna1 (GeneID 11435) #3 = 57
Relb (GeneID 19698) #1 = 123 (active)
Relb (GeneID 19698) #2 = 62.3
Relb (GeneID 19698) #3 = 95.4

The results go on:
gene,reagent no.,"GFP, % of control","viability (ATP), % of control"
Slc12a2 (GeneID 20496),1,92,81.3
Slc12a2 (GeneID 20496),2,67.9,66.4
Slc12a2 (GeneID 20496),3,89.7,66.7
Obi1 (GeneID 72486),1,40.6,27.3
Obi1 (GeneID 72486),2,152 (active),56.5
Obi1 (GeneID 72486),3,89.8,81.2
Gstz1 (GeneID 14874),1,66.9,93.1
Gstz1 (GeneID 14874),2,64.1,88.7
Gstz1 (GeneID 14874),3,73.8,77.3
Nup155 (GeneID 170762),1,84.3,102
Nup155 (GeneID 170762),2,62.3,63.5
Nup155 (GeneID 170762),3,96.1,108
Aars1 (GeneID 234734),1,104,132
Aars1 (GeneID 234734),2,37.6,50.8
Aars1 (GeneID 234734),3,74.9,74.6
Amd1 (GeneID 11702),1,117,73.1
Amd1 (GeneID 11702),2,56.2,72.8
Amd1 (GeneID 11702),3,74.1,81.6
Stard10 (GeneID 56018),1,79.6,62.1
Stard10 (GeneID 56018),2,73.1,81.4
Stard10 (GeneID 56018),3,48.4,41.1
Mbnl3 (GeneID 171170),1,52.9,67.5
Mbnl3 (GeneID 171170),2,135 (active),97.5
Mbnl3 (GeneID 171170),3,80.9,57.6
Api5 (GeneID 11800),1,103,62.6
Api5 (GeneID 11800),2,107,86.9
Api5 (GeneID 11800),3,4.51,13.8
Pld5 (GeneID 319455),1,59,75.3
Pld5 (GeneID 319455),2,95.6,86.1
Pld5 (GeneID 319455),3,83.2,75.4
Gm5069 (GeneID 277333),1,105,87
Gm5069 (GeneID 277333),2,117,93.9
Gm5069 (GeneID 277333),3,80.4,59.5
Mtmr7 (GeneID 54384),1,84.3,36.6
Mtmr7 (GeneID 54384),2,114,74.1
Mtmr7 (GeneID 54384),3,79.3,76.1
Stimate (GeneID 69179),1,64,69
Stimate (GeneID 69179),2,62.3,73.8
Stimate (GeneID 69179),3,61.1,45.5
Trp63 (GeneID 22061),1,75.3,108
Trp63 (GeneID 22061),2,68.4,55.1
Trp63 (GeneID 22061),3,77.8,122
